Measurements reported in PubChem BioAssay AID1224830 (NIAID, 2016).
Aim: 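Genes whose knock-down alters the TNF-alpha reporter response to LPS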 (primary screen). Cell system: human THP-1 monocytic leukaemia cells, TNF dual-luciferase reporter clone, PMA-differentiated to macrophage-like cells. Reagent: siRNA pool against human genes, 50 nM. Timing: LPS for 4 h, given about 3 days after siRNA transfection. Treatment: bacterial LPS (TLR4 ligand), 10 ng/ml. Read-out: 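TNF firefly reporter luminescence divided by renilla, normalised to the plate median, then turned into a robust z-score for each replicate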. Direction: TNF reporter robust z-score: higher = stronger TNF reporter response to LPS. Active means: 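Each well counts as active if its z-score is over 2.8 or under -1.5; controls are left without a call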.
Here is an unselected part of about 18,000 reagents tested. About 2,900 of them (16%) were called active. 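Calls are made per well; low scores hint the gene aids the LPS response, high scores that it dampens it.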 Repeated entries: four replicate wells of each siRNA pool.

target | TNF reporter robust z-score | outcome
TFAP2D | 2.5 | inactive
TFAP2D | 2.62 | inactive
TFAP2D | 0.99 | inactive
TFAP2D | 0.97 | inactive
SETD2 | -0.43 | inactive
SETD2 | -0.26 | inactive
SETD2 | 0.22 | inactive
SETD2 | 0.78 | inactive
MAGEB2 | -0.71 | inactive
MAGEB2 | -0.22 | inactive
MAGEB2 | 0.37 | inactive
MAGEB2 | -0.23 | inactive
TNFRSF1A | -1.32 | inactive
TNFRSF1A | -1.21 | inactive
TNFRSF1A | -1.5 | inactive
TNFRSF1A | -1.46 | inactive
REPS2 | -0.33 | inactive
REPS2 | 0.26 | inactive
REPS2 | 0.56 | inactive
REPS2 | 0.16 | inactive
ITIH6 | -0.97 | inactive
ITIH6 | -0.17 | inactive
ITIH6 | -0.68 | inactive
ITIH6 | -0.15 | inactive
PWWP3A | 0.93 | inactive
PWWP3A | 0.99 | inactive
PWWP3A | 0.17 | inactive
PWWP3A | 1.92 | inactive
MTARC2 | -0.57 | inactive
MTARC2 | -0.61 | inactive
MTARC2 | -0.13 | inactive
MTARC2 | -0.92 | inactive
UBE2Q1 | 0.79 | inactive
UBE2Q1 | 0.03 | inactive
UBE2Q1 | 0.13 | inactive
FAM43B | 1 | inactive
FAM43B | 1.65 | inactive
FAM43B | 0.42 | inactive
FAM43B | 1.43 | inactive
ALG1 | -0.24 | inactive
ALG1 | 0.65 | inactive
ALG1 | 0.21 | inactive
ALG1 | -0.09 | inactive
NPLOC4 | -0.71 | inactive
NPLOC4 | -0.45 | inactive
NPLOC4 | -1.24 | inactive
NPLOC4 | -0.13 | inactive
LSM2 | 0.96 | inactive
LSM2 | -0.75 | inactive
LSM2 | -0.08 | inactive
LSM2 | 0.07 | inactive
QSER1 | -0.77 | inactive
QSER1 | 1.25 | inactive
QSER1 | -0.67 | inactive
QSER1 | 1.44 | inactive
OR11H6 | -0.04 | inactive
OR11H6 | -0.49 | inactive
OR11H6 | -0.39 | inactive
OR11H6 | -0.01 | inactive
GPR84 | -0.63 | inactive
GPR84 | -0.52 | inactive
GPR84 | -0.55 | inactive
GPR84 | 0.64 | inactive
MIER1 | -1.08 | inactive
MIER1 | -0.7 | inactive
MIER1 | -1.68 | active
MIER1 | -1.1 | inactive
S100A11 | 1.16 | inactive
S100A11 | 1.04 | inactive
S100A11 | 0.52 | inactive
S100A11 | 0.43 | inactive
RPS21 | -1.13 | inactive
RPS21 | -0.7 | inactive
RPS21 | -1.01 | inactive
RPS21 | -1.11 | inactive

Reprinted from the listing, 9 entries:
target | TNF reporter robust z-score | outcome
TFAP2D | 0.97 | inactive
SETD2 | -0.43 | inactive
SETD2 | -0.26 | inactive
SETD2 | 0.22 | inactive
SETD2 | 0.78 | inactive
MAGEB2 | -0.71 | inactive
MAGEB2 | -0.22 | inactive
MAGEB2 | 0.37 | inactive
MAGEB2 | -0.23 | inactive
